Data from patent publication US10973794B2, “Dental composition and use” (CALSCIENCE INTERNATIONAL LTD., priority 2015, dated 2021).

Key:
Format in all cases: cell-based, human
[1] = test system: p16; experiment: Taqman Real Time-PCR expression of p16 in HFFs with and without H2O2 stress-induced premature senescence; conditions: 1/1000 dilution; for dCt, Expression of P16: HPRT control
Description: (§1) The following results relate to the analysis of senescence tests on 1,5-Dicaffeoylquinic Acid (1,5-DCQA). FIG. 8 relates to 1,4-DCQA. The experiments were conducted using human foreskin fibroblasts (HFFs).
(§2) In the following experiments, HFFs were challenged for a period of two hours with 150 μM hydrogen peroxide (H2O2), to stimulate premature senescence in the presence and absence of 1,5-DCQA (1/1000 dilution), and subsequently assayed by Taqman Real Time-PCR for the expression of key senescence associated genes.
(§3) The results shown in Table 2 and FIGS. 2 to 7 were generated using the polymerase chain reaction (PCR), wherein the dCt and ddCT values are results used in statistical analysis. The abbreviation dCt relates to “delta cycle threshold” and the abbreviation ddCt relates to “delta delta cycle threshold”. In these experiments, HPRT (hypoxanthine phosphoribosyltransferase, a protein from the HPRT-1 gene) was used as a control.

[2] = test system: p21; experiment: Taqman Real Time-PCR expression of p21 in HFFs with and without H2O2 stress-induced premature senescence; conditions: 1/1000 dilution; for dCt, Expression of P21: HPRT control
Description: as §1, §2, §3

[3] = test system: Sirtuin 2 (SIRT2); experiment: Taqman Real Time-PCR expression of Sirtuin 2 in HFFs with and without H2O2 stress-induced premature senescence; conditions: 1/1000 dilution; for dCt, Expression of SIRT2: HPRT control
Description: as §1, §2
(§4) These genes are involved in cell cycle regulation and mitochondrial stress responses. Challenge with a near lethal level of oxidant stress typically induces an increase in SIRT2 and decrease in SIRT3 expression. […] This is indicative of each having a potential for stimulating cell proliferation in the absence of oxidant challenge.
as §3

[4] = test system: Sirtuin 3 (SIRT3); experiment: Taqman Real Time-PCR expression of Sirtuin 3 in HFFs with and without H2O2 stress-induced premature senescence; conditions: 1/1000 dilution; for dCt, Expression of SIRT3: HPRT control
Description: as §1, §2, §4, §3

[5] = test system: XRCC5; experiment: Taqman Real Time-PCR expression of XRCC5 in HFFs with and without H2O2 stress-induced premature senescence; conditions: 1/1000 dilution; for dCt, Expression of XRCC5: HPRT control
Description: as §1, §2
XRCC5 is a double strand break repair protein.
as §3

[6] = test system: hPOT1; experiment: Taqman Real Time-PCR expression of hPOT1 in HFFs with and without H2O2 stress-induced premature senescence; conditions: 1/1000 dilution; for dct, Expression of hPOT1: HPRT control
Description: as §1, §2
These findings are supported by an analysis of the Protection of Telomeres gene (POT 1).
as §3

[7] = & stress (150 μM H2O2, two hours)

O=C(/C=C/c1ccc(O)c(O)c1)O[C@@H]1C[C@](OC(=O)/C=C/c2ccc(O)c(O)c2)(C(=O)O)C[C@@H](O)[C@H]1O [1,5-DCQA, 1,5-Dicaffeoylquinic Acid]
P16 (cycle threshold) [1, 7]: 28.09 | ddCt (1.275), Expression of P16 [1, 7]: −0.519 | dCt, Expression of P16 [1, 7]: 0.756 | P16 (cycle threshold) ([1]; no stress): 27.66 | ddCt (1.275), Expression of P16 ([1]; no stress): 0.050 | dCt, Expression of P16 ([1]; no stress): 1.325 | P21 (cycle threshold) [2, 7]: 21.31 | ddCt (−3.761), Expression of P21 [2, 7]: −2.263 | dCt, Expression of P21 [2, 7]: −6.024 | P21 (cycle threshold) ([2]; no stress): 22.4 | ddCt (−3.761), Expression of P21 ([2]; no stress): −0.167 | dCt, Expression of P21 ([2]; no stress): −3.928 | SIRT2 (cycle threshold) [3, 7]: 27.72 | ddCt (−0.016), Expression of SIRT2 [3, 7]: 0.371 | dCt, Expression of SIRT2 [3, 7]: 0.387 | SIRT2 (cycle threshold) ([3]; no stress): 27.16 | ddCt (−0.016), Expression of SIRT2 ([3]; no stress): 0.817 | dCt, Expression of SIRT2 ([3]; no stress): 0.833 | SIRT3 (cycle threshold) [4, 7]: 29.3 | ddCt (−2.079), Expression of SIRT3 [4, 7]: −0.120 | dCt, Expression of SIRT3 [4, 7]: 1.959 | SIRT3 (cycle threshold) ([4]; no stress): 28.56 | ddCt (−2.079), Expression of SIRT3 ([4]; no stress): 0.148 | dCt, Expression of SIRT3 ([4]; no stress): 2.227 | XRCC5 (cycle threshold) [5, 7]: 25.9 | ddCt (−−1.292), Expression of XRCC5 [5, 7]: −0.141 | dCt, Expression of XRCC5 [5, 7]: −1.433 | XRCC5 (cycle threshold) ([5]; no stress): 25.48 | ddCt (−−1.292), Expression of XRCC5 ([5]; no stress): 0.444 | dCt, Expression of XRCC5 ([5]; no stress): −0.848 | HPOT1 (cycle threshold) [6, 7]: 29.5758 | dct, Expression of hPOT1 [6, 7]: 2.240 | HPOT1 (cycle threshold) ([6]; no stress): 29.47 | dct, Expression of hPOT1 ([6]; no stress): 3.141
